Measured values from doi:10.1101/2019.12.18.881771 (bioRxiv, 2019).
No constants are given. Whether binding was seen depends on the method and setting. Binding seen in cells or lysates may run through a third protein. Some results given as binding are weak or reduced against the parent protein; the word gives no strength. Sequences can lack the tags named with a protein.

Molecular target: T1, GIT1 C-terminal fragment (aa 371-end) (mouse) (UniProt Q68FF6)
T1 sequence: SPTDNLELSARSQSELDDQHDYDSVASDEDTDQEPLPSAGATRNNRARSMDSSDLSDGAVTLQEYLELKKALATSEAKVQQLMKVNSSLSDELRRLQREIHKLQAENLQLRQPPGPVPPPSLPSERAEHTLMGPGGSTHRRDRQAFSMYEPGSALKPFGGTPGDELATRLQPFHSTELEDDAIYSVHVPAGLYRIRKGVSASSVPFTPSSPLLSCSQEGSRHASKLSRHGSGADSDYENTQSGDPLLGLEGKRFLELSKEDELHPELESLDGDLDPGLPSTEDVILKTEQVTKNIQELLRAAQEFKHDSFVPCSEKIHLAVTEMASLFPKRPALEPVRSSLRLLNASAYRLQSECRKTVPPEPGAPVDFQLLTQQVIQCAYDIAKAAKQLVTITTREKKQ
Assay: pull-down

B1: GIT1 N-terminal fragment (aa 1-371) of the GST pull-down (domain or fragment, UniProt Q68FF6 1-371)
chain: MSRKGPRAEVCADCSAPDPGWASISRGVLVCDECCSVHRSLGRHISIVKHLRHSAWPPTLLQMVHTLASNGANSIWEHSLLDPAQVQSGRRKANPQDKVHPIKSEFIRAKYQMLAFVHKLPCRDDDGVTAKDLSKQLHSSVRTGNLETCLRLLSLGAQANFFHPEKGTTPLHVAAKAGQTLQAELLVVYGADPGSPDVNGRTPIDYARQAGHHELAERLVECQYELTDRLAFYLCGRKPDHKNGHYIIPQMADRSRQKCMSQSLDLSELAKAAKKKLQALSNRLFEELAMDVYDEVDRRENDAVWLATQNHSTLVTERSAVPFLPVNPEYSATRNQGRQKLARFNAREFATLIIDILSEAKRRQQGKSLSS
binding: binds
